Reference: paper PMC10163288
The other results are listed elsewhere or left out.

B1: il10ra_site1_sap_23_mot_39a7b8d0c4c3fc04bafbda6ce6101d3a_0001_1_af2_000000014_0001_34_48_H_._f92699a6f451d299c9dcfce864df6914_0001_0001_0000500018_0000002_0_000 … (protein)
chain: SSSSSNVRELAVQASRLANEAGDPEAARRVLEIRIRYVQGKLSDEEARELIEEIIEELLSSSSSS
B2: il10ra_site1_normal_mot_1cde5897893f3d1588f92be3b001cdf2_0001_af2_000000130_0001_54_65_H_._HHH_b1_04024_af2_0001_0000300003_0000001_0_af2pred_0001 (protein)
chain: SSSSSEEERLERLEEELKKLEEEGDEEEAIRLLRRVVKLAAELNDDEILKRAAEIAKRLFSSSSS
B3: il10ra_site1_sap_22_mot_HHH_b1_02999_af2_000000239_0001_42_56_H_._d98b4791b6225abad9199bf72535a804_0001_0001_0000500023_0000001_0_0001 (protein)
chain: SSSSSEAREEAWRIIREILEALQRNDEELLKELLEELEELVRESGDPIFRFSLELLEKELSSSSS
B4: il10ra_site1_normal_mot_HHH_b2_01729_af2_000000109_0001_43_56_H_._HHH_b1_02898_af2_0001_0000800014_0000001_0_af2pred_0001 (protein)
chain: SSSSDEVEEIEKKLKELYEEGDVEEFAKLLRELFELAEELNDPELRELFERAAELAAELLSSSSS
B5: il10ra_site1_normal_mot_HHH_b1_05083_af2_000000148_0001_42_57_H_._HHH_b1_02547_af2_0001_0000100005_0000002_0_af2pred_0001 (protein)
chain: SSSSSEERRELLRLLRELAKLASEGDEEEVKELTREVEELAKELGDPHIAFIARAILKRISSSSS
B6: il10ra_site1_sap_25_mot_HHH_b2_08004_000000101_0001_1_17_H_._HHH_b1_08451_af2_0001_0000100003_0000001_0_0001 (protein)
chain: SLKELLEELTEEEGDPSRAVALVLAELMRRGIPPEEALRLVEEAAEALGDPQLRLVVRAALRLRN
B7: il10ra_site1_normal_mot_HHH_b1_06994_000000193_0001_40_55_H_._HHH_b2_05934_0001_0000100003_0000001_0 (protein)
chain: SSSSDQEEELARASVRLVEQALELNNEELFRRMLRAAIRAARLHGDEEVLERLEEILRELSSSSS
B8: il10ra_site1_sap_13_mot_HHH_b1_06348_000000162_0001_1_15_H_._HHH_b1_03219_0001_0000100010_0000001_0_0001_af2pred_0001 (protein)
chain: SSSSSDDEERLRLAIRFIRFLLEQGDKEAAERLIRAAQDIARRLGNEEIEEELEELEQLLSSSSS
B9: il10ra_site1_sap_25_mot_370675f9295878e0bd733637505c2f16_0001_1_af2_000000080_0001_18_35_H_._e6a9f0e24292654465a3c3805779fe2a_0001_1_0001_0000100003_0000001_0_0 … (protein)
chain: SSSSTLEFSVEFNLRVLEHLLELGDPERARHIVEAILKFVERARNEELLERLQKVEEEINSSSSS
B10: il10ra_site1_normal_mot_8756ee2cf497b5429c717dfc0c0bcfd6_0001_000000186_0001_1_13_H_._HHH_b2_02266_af2_0001_0000100001_0000003_0 (protein)
chain: SSSSSEEAHEAIRLLRKAAELHHEGNPEEAEEVVEKAEKLAEEANNDVLKHALKYLKRRLSSSSS
B11: il10ra_site1_sap_17_mot_HHH_b1_07527_000000076_0001_1_15_H_._HHH_b1_05500_af2_0001_0000600037_0000002_0_0001_af2pred_0001 (protein)
chain: SSSSDEEEVEEEVKRLLEEAKRISDPERRAEVLTRAFSLANRLNDDELKKLVKEVAKELTSSSSS
B12: il10ra_site1_normal_mot_HHH_b1_01247_af2_000000274_0001_1_19_H_._HHH_b2_04717_af2_0001_0000200008_0000002_0_af2pred_0001 (protein)
chain: SSSSDEEEHRLIELLQAIIRLLKEGDEEEAREVIKEAKELAEELGDELAKYQLEVLEKALRSSSS
B13: il10ra_site1_normal_mot_7d538683ae38ff56261eb02f12605454_0001_af2_000000062_0001_54_65_H_._HHH_b1_02690_0001_0000100003_0000001_0_af2pred_0001 (protein)
chain: SSSSDEEEEQIIEALQLIALLLARGNPEEAREVLKELEELVREIGDPELEAAVRTLRLALGSSSS
B14: il10ra_site1_sap_13_mot_7bf4b1c84582348b31e6ccb2b1d8e1ae_0001_1_af2_000000000_0001_1_14_H_._60091493e9a1e78a97af177fbdf76fb6_0001_1_0001_0000400020_0000001_0_00 … (protein)
chain: SSSSSSEEELRERVEELLEEAEQITDRRTLFKVLMEALRLAIRGNDPELLRRVWRLLKELSSSSS
B15: il10ra_site1_normal_mot_HHH_b1_07835_af2_000000063_0001_1_16_H_._ems_p1-16H-GBL-16H-GABBL-16H_0303_0001_0001_0002_af2_0001_0000500026_0000002_0_af2pred_0001 (protein)
chain: SSSSSEVAHLLFEALRAAARNGDKEAFERIAQIAAKWLEGKLSPEEASELLQEIIEELRSSSSSS
B16: il10ra_site1_normal_mot_b26a303360aa2756ef5b79665ce52f45_0001_000000179_0001_1_11_H_._HHH_b2_04039_0001_0000200018_0000001_0 (protein)
chain: SSSSSDVAQRVRELLEEAIEAQERGDEELVEELLEEAERLAKERNNTVLRFSVEHFARANSSSSS
B17: il10ra_site1_sap_26_mot_HHH_b1_03763_000000278_0001_22_38_H_._HHH_b1_02328_af2_0001_0000400019_0000001_0_0001 (protein)
chain: SSSSDDREELEELLEEIQRLLEEGDPERALELLQEALRFAFQLGDEEILQRLWELAKRVASSSSS
B18: il10ra_site1_normal_mot_HHH_b1_01886_000000262_0001_1_18_H_._HHH_b1_06187_0001_0000500035_0000001_0 (protein)
chain: SSSSTLEWSVKFALRAARLLREAGNPEQAEELLEKLLELLEETGDEELFEEVERLLEELRKSSSS
B19: il10ra_site1_normal_mot_HHH_b2_05323_000000159_0001_1_18_H_._HHH_b1_08208_0001_0000300015_0000001_0 (protein)
chain: SSSSSSDEALRLVLEAFRLALRGNPEEAEKVLEEALKEAEEENDPRLERAIRDLLKVLSSSSSSS
B20: il10ra_site1_normal_mot_HHH_b1_01874_000000035_0001_1_20_H_._HHH_b2_04719_0001_0000100004_0000002_0_af2pred_0001 (protein)
chain: SSSSSSSKVEEIFRLIRKALHIDDEEEAREILERALELAEELNNEIALIAAELALRQLSSSSSSS
B21: il10ra_site1_sap_17_mot_HHH_b2_07535_000000205_0001_20_36_H_._HHH_b2_06317_0001_0000100012_0000001_0_0001 (protein)
chain: SSSSSRREEVWRLLREALEARARGNPELVEELLEEAKRLAEEANSEVLLRVVEFMERALLSSSSS
B22: il10ra_site1_normal_mot_HHH_b2_03220_af2_000000223_0001_23_40_H_._HHH_b1_07968_af2_0001_0000200015_0000001_0_af2pred_0001 (protein)
chain: SSSSSEEAERAIELLREALRLRANGNPEEAKEVLEEAEELAEELGSEQLLRLIRLVLEQLSSSSS
B23: il10ra_site1_normal_mot_HHH_b1_05126_000000010_0001_38_52_H_._HHH_b2_05985_af2_0001_0000600013_0000001_1 (protein)
chain: SSSSDEEELEELLEILKELVEKNDAERFYEVAREAIELASELNDEEVQRELMELIKLLFGSSSSS
B24: il10ra_site1_sap_20_mot_HHH_b2_07144_000000289_0001_1_18_H_._HHH_b2_07383_0001_0000300040_0000001_1_0001 (protein)
chain: SSSSSSDLEELVEELEEAVREGDTEKAARIAQEAVRLAFQLSDEEALQELWELIKEVASSSSSSS
B25: il10ra_site1_normal_mot_HHH_b2_06979_000000158_0001_42_57_H_._HHH_b1_00897_af2_0001_0000100002_0000002_0_af2pred_dldesign_0_af2pred (protein)
chain: SSSSSVEDTQEILRLLRKASELEDKEEALKVVEKAVELARKLGNEILLADAEYLLADVKAESSSS
B26: il10ra_site1_sap_9_mot_HHH_b2_04251_af2_000000037_0001_42_56_H_._HHH_b2_00851_0001_0000200012_0000001_0_0001 (protein)
chain: SSSSSREEAIRNMVEAARVLLKLITDPRLREELKELLEELEEEGDPELLRELQHLAAQILNSSSS
B27: il10ra_site1_sap_26_mot_HHH_b2_08004_000000101_0001_1_17_H_._HHH_b1_08451_af2_0001_0000500016_0000002_0_0001_af2pred_dldesign_0_af2pred (protein)
chain: SSSSDVEAEVERLTEEAKRLIEEGKKEEARELLLRMRRLASEAKDGKLWQKVVEVTKLLLESSSS
B28: il10ra_site1_sap_14_mot_HHH_b1_03333_000000091_0001_1_17_H_._HHH_b2_03652_af2_0001_0000200011_0000001_0_0001 (protein)
chain: SSSSDLEEEAEELAEEAIELARKRGNRAAVFLLEQALKALEIAGDPKAAEVLYSLARIVLSSSSS
B29: il10ra_site1_sap_20_mot_HHH_b2_00335_000000038_0001_43_57_H_._HHH_b2_00335_0001_0000100004_0000001_0_0001_af2pred_0001 (protein)
chain: SSSSNLEQDVRVALKAVRILIEKGDPEDAQKALELAKRLAREANNEELEELIEEVERELHSSSSS
B30: il10ra_site1_normal_mot_HHH_b2_05323_000000159_0001_1_18_H_._HHH_b1_01365_0001_0000200019_0000001_0 (protein)
chain: SSSSDEEDQEVLELSKEIFRLLLRGNEEEARELLEKAIELAREIGDERLLRVLEDLLDVASSSSS
B31: il10ra_site1_normal_mot_HHH_b1_02809_af2_000000277_0001_40_57_H_._HHH_b1_05309_af2_0001_0000100001_0000003_0_af2pred_0001 (protein)
chain: SSSSSSDRDERSIRILIEAAKRIEDEEEARTALEFALRLAEALGDEELQEEVERLLEEISSSSSS
B32: il10ra_site1_normal_mot_HHH_b1_02062_000000185_0001_1_20_H_._HHH_b2_01313_0001_0000300018_0000001_0 (protein)
chain: SSSSSREAYELSRRAAEALSEGNYEEAEELAEEAFRIAEEENNEVVLHTIEYLLRVLRRRGSSSS
B33: il10ra_site1_normal_mot_HHH_b2_03220_af2_000000223_0001_23_40_H_._HHH_b1_06679_0001_0000100002_0000002_0_af2pred_dldesign_0_af2pred (protein)
chain: SSSSSNQDVLDLILRVRELIAAGRYEEARRLLEEARALAAALGSELFDGPLARLEAEIEAASSSS
B34: il10ra_site1_sap_15_mot_7abaf38a3307e851c9e6880adce6b300_0001_1_af2_000000155_0001_1_14_H_._HHH_b1_06012_0001_0000600024_0000001_0_0001 (protein)
chain: SSSSSEEEERIEQLIEEAEEVLEEGNPQKAIELLLEAVRLALRASDPELLRRIWKLIKEVASSSS
B35: il10ra_site1_normal_mot_HHH_b2_03220_af2_000000223_0001_23_40_H_._HHH_b1_05348_af2_0001_0000100005_0000001_0 (protein)
chain: SSSSSSEENEEVWRLIREALEVAEKDPEEAKEILEEAEKLAEEANNPLLQIQLRFLLRQLSSSSS
B36: il10ra_site1_sap_17_mot_HHH_b2_03425_000000200_0001_22_39_H_._HHH_b1_03616_0002_0000100007_0000001_1_0001 (protein)
chain: SSSNAAEEVWELLRKALELRARGDEEEAEEVVEEAEEIAREGGDRVMEVVIEFLLEQIRRLSSSS
B37: il10ra_site1_sap_14_mot_HHH_b1_01307_000000115_0001_1_18_H_._HHH_b2_00988_0001_0000300026_0000001_0_0001 (protein)
chain: SSSSSDHEDNRRIYELIQRAFEISDEEERRELLEEAQELAEELGNQLFLFAVRAAQRALLSSSSS

Target: il10ra, Q13651
Test: yeast display titration

Apparent Kd, inactive:
B1 no binding seen
B2 no binding seen
B3 no binding seen
B4 no binding seen
B5 no binding seen
B6 no binding seen
B7 no binding seen
B8 no binding seen
B9 no binding seen
B10 no binding seen
B11 no binding seen
B12 no binding seen
B13 no binding seen
B14 no binding seen
B15 no binding seen
B16 no binding seen
B17 no binding seen
B18 no binding seen
B19 no binding seen
B20 no binding seen
B21 no binding seen
B22 no binding seen
B23 no binding seen
B24 no binding seen
B25 no binding seen
B26 no binding seen
B27 no binding seen
B28 no binding seen
B29 no binding seen
B30 no binding seen
B31 no binding seen
B32 no binding seen
B33 no binding seen
B34 no binding seen
B35 no binding seen
B36 > 607 nM
B37 no binding seen

Reprinted from the listing for reference:
Apparent Kd, inactive:
B26 no binding seen
B27 no binding seen
B28 no binding seen
B29 no binding seen
B30 no binding seen
B31 no binding seen
B32 no binding seen
B33 no binding seen
B34 no binding seen
